Laboratory results: patent US20230295635
For some assays here: Weaker means in comparison with the reference protein, sequence or condition of that experiment. For some assays here: For at least one entry, the source does not settle the construct or the ends of the probe. For some assays here: Negatives hold for the conditions tested.

Experiments:
[1] = test system: Eosinophil peroxidase (EPX); assay: EMSA; conditions: 3 nM aptamer, 5 nM EPX, purified native protein, label: 5'-FAM, single-stranded DNA, variant of EAP1-05
Myeloperoxidase (MPO) = assay: FP; conditions: PBS, slightly increased non-specific binding, purified native protein, protein details: Cedarlane #426-10-0.1, untagged commercial protein, label: 5'-FAM, single-stranded DNA
Thyroid peroxidase (TPO) = assay: pull-down; conditions: HB, 1 uM protein; no TMB signal; purified recombinant protein; protein details: Cedarlane #ABIN934717; label: 5'-biotin; single-stranded DNA; variant of EAP1-05T3

“CCATCCTACCAACCAGGGGGACAGTGCAAAGGGGTAGGGAG [EAP1-05T1]”: binds more weakly ([1]; 3' stem loop removed, bound fraction significantly reduced, protein details: Cedarlane #342-60-0.1, untagged commercial protein).

“ATGCCATCCTACCAACCAGAAAGACAGTGCAAAGAAATAGAAAGAGAGCTAGAAGAAAGCTCTGAACTCG [EAP1-05T4]”: binds more weakly ([1]; G to A replacements, significant reduction, protein details: Cedarlane #342-60-0.1, untagged commercial …).

“ATGCCATCCTACCAACCAGGGGGACAGTGCAAAGGGGTAGGGAGGGGGCTAGGGGGGAGCTCTGAACTGG [EAP1-05]”: binds more weakly (Myeloperoxidase (MPO)).

“TTTTTTTTTTATGCCATCCTACCAACCAGGGGGACAGTGCAAAGGGAGCTCTGAACTCG [EAP1-05T3BT]”: no binding (Thyroid peroxidase (TPO)).

“ATGCCATCCTACCAACCAGGGGGACAGTGCAAAGGGAGCTCTGAACTCG [EAP1-05T3]”: binds more weakly (Myeloperoxidase (MPO); variant of EAP1-05).
